Results are given in words; binding and its absence hold for the method and conditions named. Some binding calls cover weakened binding; strength is not graded here.
What was measured:
Assay in all cases: peptide or protein array; total protein of cell lysate (1 mg in 1 mL) of MCF10A, MCF7, T47D or MDA-MB231 over a chip with 160 pY peptide probes (10 replicates, alanine controls), overnight at 4°C; bound GRB2 detected with rabbit anti-GRB2 and Alexa 647 secondary antibody; only the target purified
[1] = molecular target: T1, EPOR_489 tyrosine phosphopeptide probe (human)
T1 sequence (peptide, phosphotyrosine at the N-terminus (Y489)): YENSLI

Sequences of proteins named here, by UniProt entry; tags and fusion partners are left off. A change or cut given only in a name is not applied to a line headed by its entry.
UniProt Q01638: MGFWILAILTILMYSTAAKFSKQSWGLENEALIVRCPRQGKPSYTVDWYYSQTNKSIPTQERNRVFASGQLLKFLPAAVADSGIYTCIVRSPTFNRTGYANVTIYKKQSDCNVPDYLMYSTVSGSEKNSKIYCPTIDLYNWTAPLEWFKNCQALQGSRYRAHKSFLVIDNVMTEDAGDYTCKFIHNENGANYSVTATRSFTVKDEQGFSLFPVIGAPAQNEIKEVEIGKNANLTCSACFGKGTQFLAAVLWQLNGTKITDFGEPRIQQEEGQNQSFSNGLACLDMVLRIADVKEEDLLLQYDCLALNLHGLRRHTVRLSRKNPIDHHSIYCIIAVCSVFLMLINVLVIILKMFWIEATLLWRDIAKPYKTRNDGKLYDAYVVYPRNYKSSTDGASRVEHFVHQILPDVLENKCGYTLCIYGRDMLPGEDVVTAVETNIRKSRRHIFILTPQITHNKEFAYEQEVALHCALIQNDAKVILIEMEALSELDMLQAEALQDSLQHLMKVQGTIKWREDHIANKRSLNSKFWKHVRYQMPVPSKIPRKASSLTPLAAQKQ
UniProt P35568: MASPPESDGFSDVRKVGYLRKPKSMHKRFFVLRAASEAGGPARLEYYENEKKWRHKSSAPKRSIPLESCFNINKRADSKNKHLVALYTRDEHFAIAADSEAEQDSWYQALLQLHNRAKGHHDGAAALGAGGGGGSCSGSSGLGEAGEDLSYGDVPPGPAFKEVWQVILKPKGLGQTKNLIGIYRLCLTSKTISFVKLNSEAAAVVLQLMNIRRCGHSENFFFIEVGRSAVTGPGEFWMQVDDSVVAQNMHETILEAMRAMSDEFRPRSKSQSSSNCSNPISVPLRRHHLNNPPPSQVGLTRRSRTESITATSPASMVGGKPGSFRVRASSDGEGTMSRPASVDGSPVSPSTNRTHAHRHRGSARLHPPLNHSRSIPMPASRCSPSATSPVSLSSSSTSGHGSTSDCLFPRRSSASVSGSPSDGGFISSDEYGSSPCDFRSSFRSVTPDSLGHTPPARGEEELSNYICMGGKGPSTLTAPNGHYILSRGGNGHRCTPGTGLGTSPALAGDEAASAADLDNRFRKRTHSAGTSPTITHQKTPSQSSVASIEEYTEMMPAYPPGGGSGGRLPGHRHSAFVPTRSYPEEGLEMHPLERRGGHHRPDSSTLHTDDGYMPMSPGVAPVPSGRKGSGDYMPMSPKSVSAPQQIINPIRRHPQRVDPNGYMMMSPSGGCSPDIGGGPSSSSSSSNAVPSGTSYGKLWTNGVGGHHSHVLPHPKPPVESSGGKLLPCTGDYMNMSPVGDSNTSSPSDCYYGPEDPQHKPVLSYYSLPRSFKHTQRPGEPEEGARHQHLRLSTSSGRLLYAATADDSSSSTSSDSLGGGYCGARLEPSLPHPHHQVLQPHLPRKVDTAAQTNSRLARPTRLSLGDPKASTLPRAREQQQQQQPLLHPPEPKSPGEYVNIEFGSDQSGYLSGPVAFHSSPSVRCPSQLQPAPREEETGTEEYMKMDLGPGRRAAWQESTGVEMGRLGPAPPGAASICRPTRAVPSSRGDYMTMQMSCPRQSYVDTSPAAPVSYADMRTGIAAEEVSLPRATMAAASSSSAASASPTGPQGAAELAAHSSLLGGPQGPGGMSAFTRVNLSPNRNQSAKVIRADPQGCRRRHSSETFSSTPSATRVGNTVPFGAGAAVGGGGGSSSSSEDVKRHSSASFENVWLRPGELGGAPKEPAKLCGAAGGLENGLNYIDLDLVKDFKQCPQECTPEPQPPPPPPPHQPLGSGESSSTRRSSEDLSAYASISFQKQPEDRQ
UniProt O14974: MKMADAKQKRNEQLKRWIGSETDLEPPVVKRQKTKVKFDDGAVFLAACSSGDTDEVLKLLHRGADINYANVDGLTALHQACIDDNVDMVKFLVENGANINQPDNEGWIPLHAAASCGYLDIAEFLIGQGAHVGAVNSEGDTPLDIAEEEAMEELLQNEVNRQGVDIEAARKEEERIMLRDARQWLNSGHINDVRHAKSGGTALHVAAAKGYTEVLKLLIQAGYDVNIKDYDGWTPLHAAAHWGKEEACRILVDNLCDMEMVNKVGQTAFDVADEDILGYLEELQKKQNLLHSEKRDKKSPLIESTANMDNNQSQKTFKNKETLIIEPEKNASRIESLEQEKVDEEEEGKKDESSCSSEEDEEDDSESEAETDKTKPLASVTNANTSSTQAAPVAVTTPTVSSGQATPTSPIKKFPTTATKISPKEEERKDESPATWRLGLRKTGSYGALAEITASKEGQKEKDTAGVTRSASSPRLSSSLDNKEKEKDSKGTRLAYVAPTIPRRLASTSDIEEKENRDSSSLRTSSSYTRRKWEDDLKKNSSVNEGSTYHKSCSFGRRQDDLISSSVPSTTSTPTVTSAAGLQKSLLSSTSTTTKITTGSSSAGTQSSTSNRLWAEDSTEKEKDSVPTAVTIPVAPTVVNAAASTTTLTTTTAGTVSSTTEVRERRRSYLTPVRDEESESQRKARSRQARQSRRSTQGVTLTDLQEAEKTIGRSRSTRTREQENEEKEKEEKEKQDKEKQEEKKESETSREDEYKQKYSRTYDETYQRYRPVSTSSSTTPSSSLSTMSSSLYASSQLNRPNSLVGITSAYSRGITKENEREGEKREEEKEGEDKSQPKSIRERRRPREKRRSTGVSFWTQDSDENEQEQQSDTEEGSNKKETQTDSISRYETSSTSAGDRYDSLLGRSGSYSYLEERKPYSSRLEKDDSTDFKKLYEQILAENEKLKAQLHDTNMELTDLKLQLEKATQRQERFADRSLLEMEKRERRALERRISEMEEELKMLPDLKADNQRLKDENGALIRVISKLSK
UniProt P62993: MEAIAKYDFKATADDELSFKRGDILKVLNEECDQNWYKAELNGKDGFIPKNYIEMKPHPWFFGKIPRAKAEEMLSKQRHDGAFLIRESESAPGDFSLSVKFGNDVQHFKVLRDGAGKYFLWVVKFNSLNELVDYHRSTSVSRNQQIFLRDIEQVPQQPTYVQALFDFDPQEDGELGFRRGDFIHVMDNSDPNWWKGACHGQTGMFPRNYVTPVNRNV

[2] = molecular target: T2, FLT1_1213 tyrosine phosphopeptide probe (human)
T2 sequence (peptide, phosphotyrosine at the N-terminus (Y1213)): YVNAFK

[3] = molecular target: T3, FLT3_768 tyrosine phosphopeptide probe (human)
T3 sequence (peptide, phosphotyrosine at the N-terminus (Y768)): YENQKR

[4] = molecular target: T4, IL1RL1_99 tyrosine phosphopeptide probe (UniProt Q01638)
T4 sequence (peptide, phosphotyrosine at the N-terminus (Y99)): YANVTI

[5] = molecular target: T5, IRS1_47 tyrosine phosphopeptide probe (human)
T5 sequence (peptide, phosphotyrosine at the N-terminus (Y47)): YENEKK

[6] = molecular target: T6, IRS1_941 tyrosine phosphopeptide probe (human) (UniProt P35568)
T6 sequence (peptide, phosphotyrosine at the N-terminus (Y941)): YMKMDL

[7] = molecular target: T7, LAT_200 tyrosine phosphopeptide probe (human)
T7 sequence (peptide, phosphotyrosine at the N-terminus (Y200)): YVNVPE

[8] = molecular target: T8, LAX1_268 tyrosine phosphopeptide probe (human)
T8 sequence (peptide, phosphotyrosine at the N-terminus (Y268)): YVNMTG

[9] = molecular target: T9, LAX1_294 tyrosine phosphopeptide probe (human)
T9 sequence (peptide, phosphotyrosine at the N-terminus (Y294)): YENVPA

[10] = molecular target: MYPT1_68 tyrosine phosphopeptide probe (UniProt O14974)
[11] = molecular target: T10, NFAM1_220 tyrosine phosphopeptide probe (human)
T10 sequence (peptide, phosphotyrosine at the N-terminus (Y220)): YTALQR

[12] = molecular target: T11, NTAL_95 tyrosine phosphopeptide probe (human)
T11 sequence (peptide, phosphotyrosine at the N-terminus (Y95)): YENVLI

[13] = molecular target: T12, PTPN11_546 tyrosine phosphopeptide probe (human)
T12 sequence (peptide, phosphotyrosine at the N-terminus (Y546)): YTNIKY

[14] = molecular target: T13, PTPN11_584 tyrosine phosphopeptide probe (human)
T13 sequence (peptide, phosphotyrosine at the N-terminus (Y584)): YENVGL

[15] = molecular target: T14, SHIP1_556 tyrosine phosphopeptide probe (human)
T14 sequence (peptide, phosphotyrosine at the N-terminus (Y556)): YMNILR

[16] = molecular target: T15, XPO7_669 tyrosine phosphopeptide probe (human)
T15 sequence (peptide, phosphotyrosine at the N-terminus (Y669)): YTALGR

Measured: binding

GRB2 (endogenous, from cell lysates) (from UniProt P62993 1-217)
binds: all assays above

Source: PMC3694890
